Reference: the supplement of paper PMC10849652
The other results are listed elsewhere or left out.

The chains behind the UniProt entries cited, without tags or fusion partners. Where a name states a change or a piece, a line headed by the entry shows the natural chain unless it says otherwise.
UniProt O14503, whole entry, looked up: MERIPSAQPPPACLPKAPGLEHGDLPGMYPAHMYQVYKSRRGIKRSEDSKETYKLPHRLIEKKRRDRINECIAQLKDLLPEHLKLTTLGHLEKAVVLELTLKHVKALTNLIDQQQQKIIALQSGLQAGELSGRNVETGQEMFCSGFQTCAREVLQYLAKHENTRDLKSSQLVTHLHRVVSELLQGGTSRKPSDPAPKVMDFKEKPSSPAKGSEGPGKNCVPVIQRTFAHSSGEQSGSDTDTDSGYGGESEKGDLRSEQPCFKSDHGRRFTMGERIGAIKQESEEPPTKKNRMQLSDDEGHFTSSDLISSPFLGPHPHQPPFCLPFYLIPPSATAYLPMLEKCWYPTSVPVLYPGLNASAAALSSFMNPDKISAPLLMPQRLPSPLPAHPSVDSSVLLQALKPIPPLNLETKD
UniProt P13497: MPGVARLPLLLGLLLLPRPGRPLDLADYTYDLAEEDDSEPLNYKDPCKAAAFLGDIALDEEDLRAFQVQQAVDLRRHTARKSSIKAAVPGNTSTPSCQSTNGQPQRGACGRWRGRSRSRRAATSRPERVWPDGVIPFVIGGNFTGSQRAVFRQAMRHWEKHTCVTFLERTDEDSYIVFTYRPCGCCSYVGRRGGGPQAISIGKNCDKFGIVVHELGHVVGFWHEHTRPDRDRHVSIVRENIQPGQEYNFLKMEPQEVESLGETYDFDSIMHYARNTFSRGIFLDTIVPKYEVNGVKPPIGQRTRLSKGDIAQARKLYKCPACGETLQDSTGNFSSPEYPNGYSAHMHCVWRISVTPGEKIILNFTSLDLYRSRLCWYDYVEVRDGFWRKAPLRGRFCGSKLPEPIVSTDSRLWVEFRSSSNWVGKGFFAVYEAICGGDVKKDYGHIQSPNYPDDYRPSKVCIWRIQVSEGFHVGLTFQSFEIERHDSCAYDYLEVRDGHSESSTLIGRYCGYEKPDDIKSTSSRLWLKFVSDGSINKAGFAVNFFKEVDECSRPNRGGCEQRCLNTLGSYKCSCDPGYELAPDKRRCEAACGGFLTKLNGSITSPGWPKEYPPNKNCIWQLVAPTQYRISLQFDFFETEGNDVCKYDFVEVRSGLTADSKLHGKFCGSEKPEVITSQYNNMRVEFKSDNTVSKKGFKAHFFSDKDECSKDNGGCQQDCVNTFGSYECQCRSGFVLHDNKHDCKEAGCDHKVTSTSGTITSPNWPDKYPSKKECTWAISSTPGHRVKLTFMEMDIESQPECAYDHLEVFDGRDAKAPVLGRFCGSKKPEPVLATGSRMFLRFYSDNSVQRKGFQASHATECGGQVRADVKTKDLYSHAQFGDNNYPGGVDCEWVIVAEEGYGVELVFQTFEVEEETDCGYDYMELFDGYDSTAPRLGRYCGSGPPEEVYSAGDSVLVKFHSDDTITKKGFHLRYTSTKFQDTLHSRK
UniProt Q6AI39, whole entry, looked up: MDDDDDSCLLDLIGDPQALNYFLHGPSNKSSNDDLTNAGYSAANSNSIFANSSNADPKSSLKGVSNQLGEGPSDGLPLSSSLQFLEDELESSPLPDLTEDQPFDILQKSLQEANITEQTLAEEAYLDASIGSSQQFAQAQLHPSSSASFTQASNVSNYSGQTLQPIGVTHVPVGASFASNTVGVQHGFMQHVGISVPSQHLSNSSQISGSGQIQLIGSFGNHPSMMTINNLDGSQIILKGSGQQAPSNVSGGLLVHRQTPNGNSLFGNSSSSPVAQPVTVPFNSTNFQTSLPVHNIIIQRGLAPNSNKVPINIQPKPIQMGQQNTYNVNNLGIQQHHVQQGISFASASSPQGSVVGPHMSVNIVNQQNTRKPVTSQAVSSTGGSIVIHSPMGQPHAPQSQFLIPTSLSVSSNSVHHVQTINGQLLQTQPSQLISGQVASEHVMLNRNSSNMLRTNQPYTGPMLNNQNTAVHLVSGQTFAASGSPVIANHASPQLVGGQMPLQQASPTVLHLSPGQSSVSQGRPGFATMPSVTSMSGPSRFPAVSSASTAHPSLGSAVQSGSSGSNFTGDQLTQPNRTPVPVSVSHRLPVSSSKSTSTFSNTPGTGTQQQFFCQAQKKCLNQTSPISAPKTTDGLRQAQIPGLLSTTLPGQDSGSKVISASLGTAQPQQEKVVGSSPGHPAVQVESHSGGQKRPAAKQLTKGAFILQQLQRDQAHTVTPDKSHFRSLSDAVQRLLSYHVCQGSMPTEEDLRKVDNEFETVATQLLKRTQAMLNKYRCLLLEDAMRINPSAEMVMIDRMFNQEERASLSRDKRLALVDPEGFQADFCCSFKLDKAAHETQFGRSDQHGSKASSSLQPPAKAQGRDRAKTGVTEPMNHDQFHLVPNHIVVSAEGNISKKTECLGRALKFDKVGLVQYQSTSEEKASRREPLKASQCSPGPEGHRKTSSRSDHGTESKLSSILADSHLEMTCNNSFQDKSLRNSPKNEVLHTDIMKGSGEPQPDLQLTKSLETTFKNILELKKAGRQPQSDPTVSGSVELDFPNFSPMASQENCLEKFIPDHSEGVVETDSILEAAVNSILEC
UniProt Q9NWD9: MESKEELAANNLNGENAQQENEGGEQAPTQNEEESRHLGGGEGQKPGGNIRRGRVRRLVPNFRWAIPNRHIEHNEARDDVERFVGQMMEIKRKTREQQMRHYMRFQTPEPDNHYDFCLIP
UniProt Q9NSI6, whole entry, looked up: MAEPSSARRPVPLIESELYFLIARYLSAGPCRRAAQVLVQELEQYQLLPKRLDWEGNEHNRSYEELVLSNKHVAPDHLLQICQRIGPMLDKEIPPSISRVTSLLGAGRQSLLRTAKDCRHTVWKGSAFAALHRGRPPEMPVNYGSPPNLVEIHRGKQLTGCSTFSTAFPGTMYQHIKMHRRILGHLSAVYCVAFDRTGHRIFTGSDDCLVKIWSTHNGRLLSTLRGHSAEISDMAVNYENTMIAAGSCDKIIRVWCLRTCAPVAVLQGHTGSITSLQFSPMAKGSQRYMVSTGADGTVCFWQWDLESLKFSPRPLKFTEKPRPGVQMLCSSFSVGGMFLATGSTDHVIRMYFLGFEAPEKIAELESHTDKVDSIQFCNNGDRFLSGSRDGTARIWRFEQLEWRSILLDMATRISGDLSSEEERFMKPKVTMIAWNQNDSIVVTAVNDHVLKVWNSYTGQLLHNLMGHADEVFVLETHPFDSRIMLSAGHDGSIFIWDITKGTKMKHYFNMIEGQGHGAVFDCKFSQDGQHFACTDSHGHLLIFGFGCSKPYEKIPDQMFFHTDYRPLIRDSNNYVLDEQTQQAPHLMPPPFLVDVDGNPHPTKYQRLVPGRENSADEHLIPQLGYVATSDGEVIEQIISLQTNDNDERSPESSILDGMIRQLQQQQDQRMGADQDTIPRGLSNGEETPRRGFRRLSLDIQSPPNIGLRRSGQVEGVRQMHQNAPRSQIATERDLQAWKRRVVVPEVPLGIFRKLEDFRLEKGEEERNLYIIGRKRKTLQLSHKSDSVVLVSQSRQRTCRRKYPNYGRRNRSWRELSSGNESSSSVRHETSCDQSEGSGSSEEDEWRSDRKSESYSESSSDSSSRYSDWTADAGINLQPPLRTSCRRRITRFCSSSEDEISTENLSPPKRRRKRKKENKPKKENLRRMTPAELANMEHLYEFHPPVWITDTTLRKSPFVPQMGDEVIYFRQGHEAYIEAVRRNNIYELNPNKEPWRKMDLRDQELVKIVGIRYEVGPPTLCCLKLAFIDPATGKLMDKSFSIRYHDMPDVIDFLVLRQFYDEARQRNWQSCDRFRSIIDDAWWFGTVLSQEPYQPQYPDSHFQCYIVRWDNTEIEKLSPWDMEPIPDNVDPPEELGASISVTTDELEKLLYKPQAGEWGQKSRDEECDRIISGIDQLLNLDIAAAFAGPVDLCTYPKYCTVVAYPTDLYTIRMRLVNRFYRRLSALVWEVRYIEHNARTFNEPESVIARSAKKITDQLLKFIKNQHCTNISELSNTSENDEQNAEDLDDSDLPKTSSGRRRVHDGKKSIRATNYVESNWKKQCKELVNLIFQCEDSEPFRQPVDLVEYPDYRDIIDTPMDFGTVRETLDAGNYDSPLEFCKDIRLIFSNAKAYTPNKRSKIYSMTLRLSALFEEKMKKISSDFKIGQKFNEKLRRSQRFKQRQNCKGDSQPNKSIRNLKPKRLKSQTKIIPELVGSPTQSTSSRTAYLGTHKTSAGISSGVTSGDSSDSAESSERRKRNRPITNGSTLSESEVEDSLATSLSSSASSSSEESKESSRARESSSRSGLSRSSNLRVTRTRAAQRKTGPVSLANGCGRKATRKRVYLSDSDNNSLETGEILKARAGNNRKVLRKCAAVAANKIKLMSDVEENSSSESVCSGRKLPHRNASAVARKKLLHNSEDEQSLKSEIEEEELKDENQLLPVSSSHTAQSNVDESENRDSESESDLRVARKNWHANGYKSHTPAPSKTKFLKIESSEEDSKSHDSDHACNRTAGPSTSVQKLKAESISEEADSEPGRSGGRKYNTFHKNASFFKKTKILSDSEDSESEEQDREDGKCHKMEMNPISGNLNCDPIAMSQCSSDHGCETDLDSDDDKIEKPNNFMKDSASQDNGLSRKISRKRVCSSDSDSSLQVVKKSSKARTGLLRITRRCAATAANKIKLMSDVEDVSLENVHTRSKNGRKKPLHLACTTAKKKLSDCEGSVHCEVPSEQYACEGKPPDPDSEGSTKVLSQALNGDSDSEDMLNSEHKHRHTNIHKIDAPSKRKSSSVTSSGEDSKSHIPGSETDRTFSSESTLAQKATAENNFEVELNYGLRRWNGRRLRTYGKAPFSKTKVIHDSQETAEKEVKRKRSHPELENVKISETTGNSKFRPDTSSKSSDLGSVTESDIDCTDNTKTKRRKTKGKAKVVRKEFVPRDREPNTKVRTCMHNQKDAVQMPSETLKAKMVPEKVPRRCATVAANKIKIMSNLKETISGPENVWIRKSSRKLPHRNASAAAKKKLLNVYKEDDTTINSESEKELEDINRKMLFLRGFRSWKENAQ
UniProt O75363: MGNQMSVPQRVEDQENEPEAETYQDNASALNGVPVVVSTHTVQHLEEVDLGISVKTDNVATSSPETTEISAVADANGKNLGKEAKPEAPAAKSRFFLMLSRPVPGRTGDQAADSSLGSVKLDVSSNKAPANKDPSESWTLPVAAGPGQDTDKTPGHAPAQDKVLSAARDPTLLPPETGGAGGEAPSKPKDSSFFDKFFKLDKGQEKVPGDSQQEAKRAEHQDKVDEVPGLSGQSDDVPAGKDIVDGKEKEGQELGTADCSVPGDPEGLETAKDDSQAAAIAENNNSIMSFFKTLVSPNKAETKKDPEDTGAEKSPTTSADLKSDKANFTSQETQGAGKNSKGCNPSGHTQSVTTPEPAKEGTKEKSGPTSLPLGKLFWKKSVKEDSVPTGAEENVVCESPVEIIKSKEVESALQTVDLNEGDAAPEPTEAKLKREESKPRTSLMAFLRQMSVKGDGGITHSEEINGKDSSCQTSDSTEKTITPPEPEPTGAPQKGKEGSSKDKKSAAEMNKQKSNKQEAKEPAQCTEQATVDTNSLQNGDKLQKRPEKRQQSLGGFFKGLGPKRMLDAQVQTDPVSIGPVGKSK
UniProt Q9BXY8: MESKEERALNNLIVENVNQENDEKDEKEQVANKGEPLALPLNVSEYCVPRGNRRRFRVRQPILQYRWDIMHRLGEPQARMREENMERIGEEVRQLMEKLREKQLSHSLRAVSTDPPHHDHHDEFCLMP
UniProt Q8WY36: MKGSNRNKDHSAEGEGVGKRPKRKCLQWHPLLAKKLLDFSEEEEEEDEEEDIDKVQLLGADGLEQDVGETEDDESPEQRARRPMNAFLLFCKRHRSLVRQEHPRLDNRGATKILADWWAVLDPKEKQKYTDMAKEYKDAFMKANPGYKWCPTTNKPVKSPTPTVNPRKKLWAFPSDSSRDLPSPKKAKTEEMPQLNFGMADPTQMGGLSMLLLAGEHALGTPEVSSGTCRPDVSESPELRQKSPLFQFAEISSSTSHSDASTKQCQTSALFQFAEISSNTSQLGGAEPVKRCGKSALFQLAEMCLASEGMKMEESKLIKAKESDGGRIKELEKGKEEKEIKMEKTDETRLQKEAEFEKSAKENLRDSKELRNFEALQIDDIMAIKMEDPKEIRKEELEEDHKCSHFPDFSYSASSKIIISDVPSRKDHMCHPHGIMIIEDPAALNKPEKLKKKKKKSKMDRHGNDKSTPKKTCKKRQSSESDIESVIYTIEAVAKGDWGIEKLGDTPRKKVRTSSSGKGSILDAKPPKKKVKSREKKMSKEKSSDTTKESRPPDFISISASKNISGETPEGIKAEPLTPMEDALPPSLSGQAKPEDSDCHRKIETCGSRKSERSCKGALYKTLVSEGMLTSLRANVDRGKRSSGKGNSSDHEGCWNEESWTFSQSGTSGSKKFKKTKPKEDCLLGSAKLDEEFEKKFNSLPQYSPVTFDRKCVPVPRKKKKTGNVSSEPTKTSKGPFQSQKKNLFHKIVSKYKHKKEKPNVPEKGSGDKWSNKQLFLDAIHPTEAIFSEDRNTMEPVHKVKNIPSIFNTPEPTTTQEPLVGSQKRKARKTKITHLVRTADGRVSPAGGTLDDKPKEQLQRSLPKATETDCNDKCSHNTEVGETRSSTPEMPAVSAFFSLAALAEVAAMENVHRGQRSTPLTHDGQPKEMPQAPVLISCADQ

compound: C1COCCN1CCN2C3=CC=CC=C3N=C2NC(=O)C4=CC(=CC=C4)[N+](=O)[O-] [IRAK-1-4 Inhibitor I]; test: log2 fold change, soluble protein after heating vs DMSO (PISA); higher = thermal stabilisation; K562 lysate, 10 uM; active = over 0.2 and 3.5 SD of the protein, either way, in both replicates (recomputed)
Summary of the method: (§1)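 K562 pellets were dounce-homogenised in PBS pH 7.4 with 1 mM MgCl2, and the crude extract at 1 mg/mL protein was treated with 10 μM compound for 30 min. Aliquots were heated for 3 min across 48°C-58°C, pooled, and brought to 0.5% NP-40 at 4°C; soluble protein was the supernatant after 21,000xg for 90 min. Soluble protein was quantified by TMTpro 16plex LC-MS/MS with channel sums equalised, and reported as log2 fold change in thermal stability against DMSO controls, with values from duplicates.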

Target	log2 fold change
BCL7A (UniProt Q4VC05)	inactive: 0.128
BHLHE40 (UniProt O14503)	inactive: 0.041
BMP1 (UniProt P13497)	inactive: -0.219
BDP1 (UniProt A6H8Y1)	inactive: -0.026
BICRAL (UniProt Q6AI39)	inactive: 0.077
BEX4 (UniProt Q9NWD9)	inactive: -0.052
BOD1 (UniProt Q96IK1)	inactive: 0.007
BAHD1 (UniProt Q8TBE0)	inactive: -0.064
BPTF (UniProt F5GXF5)	inactive: 0.024
BCL2 (UniProt P10415)	inactive: 0.052
BRWD1 (UniProt Q9NSI6)	inactive: 0.007
BCAS1 isoform 2 (UniProt O75363)	inactive: 0.108

compound: C=CC(=O)N1CCC[C@@H](n2nc(-c3ccc(Oc4ccccc4)cc3)c3c(N)ncnc32)C1 [ibrutinib]; test: as above
Summary of the method: as §1

Target	log2 fold change
BCL7A (UniProt Q4VC05)	inactive: -0.057
BTBD10 isoform 2 (UniProt Q9BSF8)	inactive: 0.134
BNIP2 (UniProt H7C096)	inactive: 0.073
BCL2L11 (UniProt O43521)	inactive: 0.057
BAHD1 (UniProt Q8TBE0)	inactive: -0.194
BCL2 (UniProt P10415)	inactive: 0.013
BCAS1 isoform 2 (UniProt O75363)	inactive: -0.013

compound: CC(=O)c1cnc2ccc(-c3cc(Cl)c(O)c(Cl)c3)nc2c1N[C@H]1CC[C@H](CN(C)C)CC1; test: as above
Summary of the method: as §1

Target	log2 fold change
BCL7A (UniProt Q4VC05)	inactive: -0.056
BTBD9 (UniProt Q96Q07)	inactive: -0.266
BRMS1L (UniProt Q5PSV4)	inactive: 0.013
BNIP2 (UniProt H7C096)	inactive: -0.005
BLVRA (UniProt C9J1E1)	inactive: 0.054
BEX2 isoform 2 (UniProt Q9BXY8)	inactive: -0.107
BOD1 (UniProt Q96IK1)	inactive: -0.137
BCAS1 isoform 2 (UniProt O75363)	inactive: -0.07

compound: CC(C)(C)Cn1c(N)nc2ccc(-c3[nH]c(C(C)(C)C)nc3-c3ccc(F)cc3)nc21 [ralimetinib]; test: as above
Summary of the method: as §1

Target	log2 fold change
BCL7A (UniProt Q4VC05)	inactive: 0.012
BHLHE40 (UniProt O14503)	inactive: 0.01
BMP1 (UniProt P13497)	inactive: 0.453
BDP1 (UniProt A6H8Y1)	inactive: 0.117
BICRAL (UniProt Q6AI39)	inactive: 0.102
BEX4 (UniProt Q9NWD9)	inactive: -0.024
BOD1 (UniProt Q96IK1)	inactive: 0.042
BAHD1 (UniProt Q8TBE0)	inactive: -0.011
BPTF (UniProt F5GXF5)	inactive: 0.112
BCL2 (UniProt P10415)	inactive: -0.049
BRWD1 (UniProt Q9NSI6)	inactive: 0.118
BCAS1 isoform 2 (UniProt O75363)	inactive: -0.111

compound: CC(C)(O)CC(=O)NCCn1ccc2ncnc(Nc3ccc(Oc4cccc(C(F)(F)F)c4)c(Cl)c3)c21; test: as above
Summary of the method: as §1

Target	log2 fold change
BCL7A (UniProt Q4VC05)	inactive: -0.174
BHLHE40 (UniProt O14503)	inactive: -0.052
BMP1 (UniProt P13497)	inactive: 0.027
BDP1 (UniProt A6H8Y1)	inactive: 0.021
BICRAL (UniProt Q6AI39)	inactive: 0
BEX4 (UniProt Q9NWD9)	inactive: 0.109
BOD1 (UniProt Q96IK1)	inactive: -0.014
BAHD1 (UniProt Q8TBE0)	inactive: -0.143
BPTF (UniProt F5GXF5)	inactive: -0.174
BCL2 (UniProt P10415)	inactive: -0.123
BRWD1 (UniProt Q9NSI6)	inactive: -0.214
BCAS1 isoform 2 (UniProt O75363)	inactive: -0.409

compound: CC(C)C1=C2N=C(C=C(N2N=C1)NCC3=CC=CC=C3)NCCCCCCN; test: as above
Summary of the method: as §1

Target	log2 fold change
BHLHE40 (UniProt O14503)	inactive: 0.009
BBX (UniProt Q8WY36)	inactive: -0.036
BTBD9 (UniProt Q96Q07)	inactive: -0.256
BANP isoform 7 (UniProt Q8N9N5)	inactive: -0.186
BTG3 isoform 2 (UniProt Q14201)	inactive: 0.046
BEX4 (UniProt Q9NWD9)	inactive: 0.003
BPTF (UniProt F5GXF5)	inactive: 0.002
BTBD2 (UniProt Q9BX70)	inactive: -0.018
B4GALT4 (UniProt O60513)	inactive: 0.048

compound: CC1=C(C(CC(=O)N1)C2=CC=C(C=C2)C(F)(F)F)C(=O)NC3=C(C=C4C(=C3)C=NN4)F; test: as above
Summary of the method: as §1

Target	log2 fold change
BTBD10 isoform 2 (UniProt Q9BSF8)	inactive: -0.068
BBS4 isoform 2 (UniProt Q96RK4)	inactive: 0.03
BBX (UniProt Q8WY36)	inactive: -0.427
BLVRA (UniProt C9J1E1)	inactive: 0.147
BEX4 (UniProt Q9NWD9)	inactive: 0.038
BMT2 (UniProt Q1RMZ1)	inactive: 0.586
BPIFB1 (UniProt Q8TDL5)	inactive: 2.15
BCAS1 isoform 2 (UniProt O75363)	inactive: -0.002

compound: CC1=C(C2=C(C=C1)C(=O)C3=CC=CC=C3N2CCCN)C; test: as above
Summary of the method: as §1

Target	log2 fold change
BCL7A (UniProt Q4VC05)	inactive: 0.039
BTBD10 isoform 2 (UniProt Q9BSF8)	inactive: -0.126
BBS4 isoform 2 (UniProt Q96RK4)	inactive: 0.029
BBX (UniProt Q8WY36)	inactive: 0.128
BEX4 (UniProt Q9NWD9)	inactive: 0.013
BOD1 (UniProt Q96IK1)	inactive: -0.276
BAHD1 (UniProt Q8TBE0)	inactive: -0.199
BRWD1 (UniProt Q9NSI6)	inactive: -0.28
B4GALT4 (UniProt O60513)	inactive: -0.006
